# Laboratory results: PubChem BioAssay AID588590 (National Center for Advancing Translational Sciences (NCATS), 2011)
# Sequences of proteins named here, by UniProt entry; tags and fusion partners are left off. A change or cut given only in a name is not applied to a line headed by its entry.
# UniProt Q9UNA4: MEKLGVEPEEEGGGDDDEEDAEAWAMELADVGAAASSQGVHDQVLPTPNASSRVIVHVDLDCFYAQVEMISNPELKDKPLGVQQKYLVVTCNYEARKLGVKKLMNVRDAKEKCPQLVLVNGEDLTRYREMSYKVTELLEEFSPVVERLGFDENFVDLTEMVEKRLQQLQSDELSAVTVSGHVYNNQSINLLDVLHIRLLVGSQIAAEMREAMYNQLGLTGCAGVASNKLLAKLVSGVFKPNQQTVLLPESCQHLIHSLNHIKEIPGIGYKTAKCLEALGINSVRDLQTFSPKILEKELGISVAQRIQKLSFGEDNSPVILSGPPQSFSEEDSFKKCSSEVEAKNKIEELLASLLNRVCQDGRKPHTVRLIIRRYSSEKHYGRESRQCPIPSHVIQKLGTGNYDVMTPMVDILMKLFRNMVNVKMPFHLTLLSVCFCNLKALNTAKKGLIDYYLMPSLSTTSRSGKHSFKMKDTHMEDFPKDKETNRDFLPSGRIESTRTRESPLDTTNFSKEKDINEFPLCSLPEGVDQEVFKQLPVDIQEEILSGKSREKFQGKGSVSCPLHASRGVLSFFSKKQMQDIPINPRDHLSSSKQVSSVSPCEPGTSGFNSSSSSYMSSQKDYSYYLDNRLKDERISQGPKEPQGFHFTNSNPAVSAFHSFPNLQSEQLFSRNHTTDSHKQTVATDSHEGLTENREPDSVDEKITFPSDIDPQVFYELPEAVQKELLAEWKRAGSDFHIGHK
# About 4,000 (1%) of roughly 390,000 compounds were called active. Inconclusive means that the source gave no clear call. Such entries were picked first, then a sample of the others. Calls follow the shape of the dose curve; as a rule, active = well fitted inhibition curve with a large enough effect; inconclusive = small, poorly fitted or top-dose-only effect, or another doubt; inactive = no such curve, though single readings can be large or run the other way. A potency beside an inconclusive call is a rough fit, not a confirmed value.
# Target: DNA polymerase iota (Homo sapiens) (UniProt Q9UNA4)
# Assay: qHTS for Inhibitors of Polymerase Iota
# Conditions: Pol iota fluorescent replication assay, 10 min; series mostly up to 115 µM
# How it was run: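 Pol iota at 10 nM preincubated 15 min with compounds at room temperature; reaction started with fluorescent substrate, 50 nM final. Fluorescence read kinetically at 0 and 10 min; buffer-only wells as negative control.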
# Potency is read from the fitted curve at half-maximal effect.
row,SMILES,Potency
1,CO[C@@]1(NC(=O)Cc2cccs2)C(=O)N2C(C(=O)O)=C(COC(N)=O)CS[C@@H]21,"inconclusive: 11.2 µM [inhibitor, full curve, poor fit]"
2,COc1ccc(C(c2c(C)[nH]n(C(N)=S)c2=O)C(C#N)C#N)cc1 (stereo unspecified),"inconclusive: 2.82 µM [inhibitor, full curve, poor fit]"
3,CCOc1ccccc1NC(=O)C(NS(=O)(=O)c1ccc2c(c1)CCC(=O)N2)c1ccccc1 (stereo unspecified),inactive
4,O=C(NC1CCN(c2ncccn2)CC1)c1ccccc1F,"inconclusive: 0.631 µM [inhibitor, full curve, poor fit]"
5,CCOC(=O)C1=C(C)N(c2ccc(OCC)cc2)C(=O)/C1=C\c1ccco1,"inconclusive: 35.5 µM [inhibitor, partial curve]"
6,CSc1cccc(NC(=O)C2CCN(c3ncnc4c3nc3n4CCCCC3)CC2)c1,"inconclusive: 89.1 µM [inhibitor, single point]"
7,CN(C)S(=O)(=O)c1ccc(C(=O)NCCSc2ccccc2)cc1,"inconclusive: 17.8 µM [inhibitor, partial curve, poor fit]"
8,C=CCNC(=S)N1CCN(c2ncc3c(=O)c(C(=O)O)cn(CC)c3n2)CC1,"inconclusive: 89.1 µM [inhibitor, partial curve, poor fit]"
9,COc1ccc(C2CC(c3cccs3)=NN2C(=O)CSC2=NN3CCCC(=O)N=C3S2)cc1 (stereo unspecified),"inconclusive: 35.5 µM [inhibitor, single point]"
10,N#C/C(=C\c1ccc(C(=O)O)cc1)S(=O)(=O)c1cc(Br)ccc1Br,"inconclusive: 20 µM [inhibitor, partial curve, poor fit]"
11,CCN(CC)CCN1C(=O)C(=O)/C(=C(/O)c2ccc(Cl)cc2)C1c1ccncc1 (stereo unspecified),"inconclusive: 89.1 µM [inhibitor, single point]"
12,O=Cc1s/c(=N\S(=O)(=O)c2ccccc2)n(CCCCl)c1Cl,"inconclusive: 22.4 µM [inhibitor, partial curve]"
13,COc1ccc(CNC(=O)c2ccc3c(c2)N(C)C(=O)C2CCCCN32)cc1OC (stereo unspecified),inactive
14,CCOc1ccc(NC(=O)c2cc3c(n(-c4ccc(OC)cc4)c2=O)CC(C)(C)CC3=O)cc1,inactive
15,CC(=O)c1cccc(NC(=O)c2cccn2-c2nnc(N3CCCCC3)s2)c1,"inconclusive: 39.8 µM [inhibitor, partial curve, poor fit]"
16,COc1ccccc1Cn1c(CNS(=O)(=O)c2ccccc2Cl)nc2cccnc21,inactive
17,Cc1cccn2c(=O)cc(COC(=O)C(C)Oc3ccccc3)nc12 (stereo unspecified),"inconclusive: 79.4 µM [inhibitor, partial curve, poor fit]"
18,CC(=O)NC1C(=O)N(CCN2CCOCC2)c2ccc(Br)cc21 (stereo unspecified),"inconclusive: 1.12 µM [inhibitor, full curve, poor fit]"
19,O=C(Nc1cccc(F)c1)N1CCC(n2c(=O)[nH]c3ccccc32)CC1,"inconclusive: 15.8 µM [inhibitor, partial curve, poor fit]"
20,O=C(COC(=O)C12CC3CC(CC(C3)C1)C2)NCC1CCCO1 (stereo unspecified),inactive
21,CC(=O)Nc1ccc(NC(=O)COC(=O)c2ccccc2OCc2cccc(Br)c2)cc1,inactive

row,SMILES,Potency
1,Cc1ccc(N/N=C(\C#N)C(=O)c2ccsc2)cc1,"inconclusive: 89.1 µM [inhibitor, partial curve, poor fit]"
2,COc1cc2c(cc1OC)CN(c1ccc3ccccc3n1)CC2,"inconclusive: 50.1 µM [inhibitor, partial curve]"
3,NC(CSS(=O)(=O)O)=NCCC12CC3CC(CC(O)(C3)C1)C2,"inconclusive: 20 µM [inhibitor, partial curve, poor fit]"
4,Cc1oc(-c2ccc(Cl)cc2)nc1Cn1c(=O)cc(C)c2c(C)nn(-c3cccc(F)c3)c21,"inconclusive: 89.1 µM [inhibitor, single point]"
5,O=C(c1cc(-c2ccccn2)nc2c(Cl)cccc12)N1CCN(S(=O)(=O)c2ccccc2)CC1,"inconclusive: 89.1 µM [inhibitor, partial curve]"
6,COc1ccccc1/C=C1/C(=O)N(c2ccc([N+](=O)[O-])cc2)N=C1C,"inconclusive: 6.31 µM [inhibitor, full curve]"
7,O=C(O)/C=C/C(=O)Nc1ccc2c(c1)C(=O)c1ccccc1C2=O,"inconclusive: 17.8 µM [inhibitor, full curve, poor fit]"
8,O=C1/C(=C\c2ccco2)SC(=S)N1C1CCS(=O)(=O)C1 (stereo unspecified),active: 20 µM
9,O=C(O)c1ccc(N/N=C/c2ccc(-c3ccc(Br)cc3)o2)cc1,"inconclusive: 22.4 µM [inhibitor, partial curve, poor fit]"
10,O=c1c(Cl)c(Cl)cnn1Cc1ccccc1Cl,"inconclusive: 44.7 µM [inhibitor, partial curve]"
11,N#Cc1sc2nc(-c3cccs3)cc(-c3ccc(Cl)cc3)c2c1N,"inconclusive: 20 µM [inhibitor, single point]"
12,Cc1nn(C)cc1N1C(=O)c2cccc3c(N)ccc(c23)C1=O,"inconclusive: 79.4 µM [inhibitor, single point]"
13,CCCN1C(=O)C2(C(C(=O)c3ccc(C)o3)=C(O)C(=O)N2CCCN2CCOCC2)c2ccccc21 (stereo unspecified),"inconclusive: 56.2 µM [inhibitor, full curve]"
14,COc1ccc(-n2nc3c(c2NC(=O)CBr)CSC3)cc1,"inconclusive: 44.7 µM [inhibitor, partial curve]"
15,COc1ccccc1NC(=O)CCNS(=O)(=O)c1ccc2[nH]c(=O)oc2c1,"inconclusive: 50.1 µM [inhibitor, partial curve, poor fit]"
16,C=CCOc1c(Br)cc(C2NC(=O)NC(C)=C2C(C)=O)cc1OCC (stereo unspecified),inactive
17,CCN(CC)CCCNc1ccc2ncn3c4ccc(O)cc4c(=O)c1c23,"inconclusive: 56.2 µM [inhibitor, partial curve, poor fit]"
18,O=C(c1ccc(Cl)c(Cl)c1)N1CCC(=O)N(C(COCc2ccccc2)Cc2ccccc2)CC1 (stereo unspecified),"inconclusive: 17.8 µM [inhibitor, full curve]"
19,CC1=NN(c2ccc([N+](=O)[O-])cc2)C(=O)C1,inactive
20,Cc1ccc(NC(=O)CN2CCCN(Cc3ccccc3Cl)S2(=O)=O)c(C)c1,"inconclusive: 2.82 µM [inhibitor, full curve, poor fit]"
21,CS(=O)(=O)c1ccc2nc(NC(=O)Nc3cccc(Cl)c3)sc2c1,"inconclusive: 56.2 µM [inhibitor, partial curve, poor fit]"

row,SMILES,Potency
1,O=C(Cn1cnc2sc(-c3ccccc3)cc2c1=O)NCc1ccccc1,"inconclusive: 50.1 µM [inhibitor, partial curve, poor fit]"
2,COc1ccc(-c2ccc3oc(-c4ccc(OC)cc4)c(C#CCCO)c3c2)cc1,active: 35.5 µM
3,COc1ccc(S(=O)(=O)NCCc2nnc3ccc(SCC(=O)Nc4ccc(C(F)(F)F)cc4)nn23)cc1,inactive
4,COc1cc(/C=N/Nc2nc3c(c(=O)n(C)c(=O)n3C)n2Cc2ccccc2)ccc1OC(=O)c1ccco1,"inconclusive: 8.91 µM [inhibitor, partial curve, poor fit]"
5,CC(CCC(C)C(C)(C)C)[C@@H]1CC[C@H]2C3C[C@H](OS(O)(=S)=S)[C@H]4C[C@H](OS(O)(=S)=S)[C@@H](OS(O)(=S)=S)C[C@]4(C)[C@H]3CC[C@]12C (stereo partly specified) (tested in a mixture with another compound),active: 3.55 µM
6,O=C(CN1CCSc2ccccc21)N1CCN(c2ccccc2)CC1,inactive
7,COc1ccc(C2=CC3=C(Br)C(=O)C(C)(O)C(=O)C3=CO2)cc1 (stereo unspecified),"inconclusive: 22.4 µM [inhibitor, full curve]"
8,CSc1ccc(CCNC(=O)CCc2c(C)nc3c(-c4ccccc4)c(C)nn3c2C)cc1,inactive
9,O=C(c1cnc2cc(-c3ccccc3)nn2c1)c1cc([N+](=O)[O-])ccc1O,"inconclusive: 100 µM [inhibitor, partial curve, poor fit]"
10,COc1cccc(/C=C/c2nc(C#N)c(N3CCCCC3)o2)c1,"inconclusive: 44.7 µM [inhibitor, single point]"
11,Cc1nnc2ccc(-c3cccc(NC(=O)Cc4cccs4)c3)nn12,active: 35.5 µM
12,CCc1ccccc1NS(=O)(=O)c1cc2c3c(c1)CCN3C(=O)CC2,"inconclusive: 89.1 µM [inhibitor, partial curve, poor fit]"
13,O=S(=O)(NNc1nccc(C(F)(F)F)n1)c1cccc(Cl)c1Cl,"inconclusive: 31.6 µM [inhibitor, partial curve, poor fit]"
14,C#CCOc1ccc(C2C3=C(CCCC3=O)N(CC(=O)O)C3=C2C(=O)CCC3)cc1Br,"inconclusive: 25.1 µM [inhibitor, single point]"
15,CC(=O)Oc1c(Cl)cc(Cl)cc1/C=C/c1ccc2ccccc2n1,"inconclusive: 7.94 µM [inhibitor, full curve, poor fit]"
16,O=S1(=O)C=C(SCc2cccc(Cl)c2)Nc2ccccc21,"inconclusive: 89.1 µM [inhibitor, single point]"
17,O=C(COc1ccc(Cl)cc1)Nc1ccccc1C(=O)OCc1cc(=O)n2ccsc2n1,"inconclusive: 63.1 µM [inhibitor, partial curve, poor fit]"
18,COCCn1c(NC(=S)NC(=O)C23CC4CC(CC(C4)C2)C3)cc(=O)[nH]c1=O,inactive
19,C#CCOCCOCCOCCNc1nc(N2CCN(C(=O)CCCCCCCCCCNC(=O)[C@@H](CCC(=O)O)n3cc(CCCCCN)nn3)CC2)nc(N2CCN(C(=O)CCCCCCCCCCNC(=O)[C@H]([C@@H](C)CC)n3cc(CCCCCN)nn3)CC2)n1,"inconclusive: 14.1 µM [inhibitor, partial curve, poor fit]"

# By substructure: the compounds so far containing a CF3 group.
row,SMILES,Potency
3,COc1ccc(S(=O)(=O)NCCc2nnc3ccc(SCC(=O)Nc4ccc(C(F)(F)F)cc4)nn23)cc1,inactive
13,O=S(=O)(NNc1nccc(C(F)(F)F)n1)c1cccc(Cl)c1Cl,"inconclusive: 31.6 µM [inhibitor, partial curve, poor fit]"
